# Results: the supplement of paper PMC8728848
# The list shows a part of the results.
# B1: Clec39 (Caenorhabditis elegans) (protein)
# chain: MTSFYDNSSSSSKPVPLKTSRAQKIQILIFDNWKLILYGAISTLILVLAIMFSTLFFALPAANCDENSEPTKYYTTNAEITTTITTTNQKTTSTASSHLTTISSSATQIYSESSSSSTSQSTFTQSPPEISTTTIAPSDFSCQHGFTLVNNKCWKLVTSNQARPDADKICNGYGGATLFSIKSEQDNRAMIHFVKGQDIDFLWSGLLCSAGEPISCIWDIENGSTANYSNFADGFPNIVYGNCVYFITSGDEAGQWGNEQCGQVMNFVCELPATFQGKDGCKNNYEKSCYLRFDLNLTVPQAQNFCLEKCANLVSIHSANEVRFIMTIYDFIGEILIGALAPAQDFIYWLDGTPANYNNLKFFYNSTCVHMTVAPGMQNVGKWFTRFCTETGKFLCKRSIKNSCT
# Columns and labels:
# Test in all cases: glycan array binding signal (z-score within array); higher = stronger binding
# Settings in all cases: glycan notation: IUPAC condensed, linker removed
# [1] = target: Neu5Ac(a2-6)GlcNAc(b1-4)GlcNAc(b1-4)GlcNAc
# Summary of the method: (§1)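 The Consortium for Functional Glycomics database supplied 3228 glycan arrays, of which those lacking an available protein sequence were dropped. The binding signal, a within-array Z-score, was averaged across arrays of the same protein sequence and across linkers. Negative scores can be read as non-binding.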
# Neu5Ac(a2-8)Neu5Ac = target: Neu5Ac(a2-8)Neu5Ac
# Summary of the method: as §1
# [2] = target: Neu5Ac(a2-8)Neu5Ac(a2-3)Gal(b1-3)GalNAc(b1-4)[Neu5Ac(a2-3)]Gal(b1-4)Glc
# Summary of the method: as §1
# [3] = target: Neu5Ac(a2-8)Neu5Ac(a2-3)Gal(b1-3)GalNAc(b1-4)[Neu5Ac(a2-8)Neu5Ac(a2-3)]Gal(b1-4)Glc
# Summary of the method: as §1
# [4] = target: Neu5Ac(a2-8)Neu5Ac(a2-3)Gal(b1-4)Glc
# Summary of the method: as §1
# [5] = target: Neu5Ac(a2-8)Neu5Ac(a2-3)Gal(b1-4)GlcNAc
# Summary of the method: as §1
# [6] = target: Neu5Ac(a2-8)Neu5Ac(a2-3)[Gal(b1-3)GalNAc(b1-4)]Gal(b1-4)Glc
# Summary of the method: as §1
# [7] = target: Neu5Ac(a2-8)Neu5Ac(a2-3)[GalNAc(b1-4)]Gal(b1-4)Glc
# Summary of the method: as §1
# [8] = target: Neu5Ac(a2-8)Neu5Ac(a2-8)Neu5Ac
# Summary of the method: as §1
# [9] = target: Neu5Ac(a2-8)Neu5Ac(a2-8)Neu5Ac(a2-3)Gal(b1-4)Glc
# Summary of the method: as §1
# [10] = target: Neu5Ac(a2-8)Neu5Ac(a2-8)Neu5Ac(a2-3)[Gal(b1-3)GalNAc(b1-4)]Gal(b1-4)Glc
# Summary of the method: as §1
# [11] = target: Neu5Ac(a2-8)Neu5Ac(a2-8)Neu5Ac(a2-3)[GalNAc(b1-4)]Gal(b1-4)Glc
# Summary of the method: as §1
# [12] = target: Neu5Ac(a2-8)Neu5Ac(a2-8)Neu5Ac(a2-8)Neu5Ac(a2-3)[GalNAc(b1-4)]Gal(b1-4)Glc
# Summary of the method: as §1
# [13] = target: Neu5Ac(a2-8)Neu5Gc(a2-3)Gal(b1-4)GlcNAc
# Summary of the method: as §1
# [14] = target: Neu5Ac(b2-6)Gal(b1-4)GlcNAc
# Summary of the method: as §1
# Neu5Ac(b2-6)GalNAc = target: Neu5Ac(b2-6)GalNAc
# Summary of the method: as §1
# [15] = target: Neu5Ac9Ac(a2-3)Gal(b1-3)GlcNAc
# Summary of the method: as §1
# [16] = target: Neu5Ac9Ac(a2-3)Gal(b1-4)GlcNAc
# Summary of the method: as §1
# [17] = target: Neu5Ac9Ac(a2-6)Gal(b1-4)GlcNAc
# Summary of the method: as §1
# [18] = target: Neu5Gc(a2-3)Gal(b1-3)GlcNAc
# Summary of the method: as §1
# [19] = target: Neu5Gc(a2-3)Gal(b1-3)[Fuc(a1-4)]GlcNAc
# Summary of the method: as §1
# Neu5Gc(a2-3)Gal(b1-4)Glc = target: Neu5Gc(a2-3)Gal(b1-4)Glc
# Summary of the method: as §1
# [20] = target: Neu5Gc(a2-3)Gal(b1-4)GlcNAc
# Summary of the method: as §1
# [21] = target: Neu5Gc(a2-3)Gal(b1-4)GlcNAc(b1-3)Gal(b1-4)GlcNAc(b1-2)Man(a1-3)[Neu5Gc(a2-3)Gal(b1-4)GlcNAc(b1-3)Gal(b1-4)GlcNAc(b1-2)Man(a1-6)]Man(b1-4)GlcNAc(b1-4)GlcNAc
# Summary of the method: as §1
# [22] = target: Neu5Gc(a2-3)Gal(b1-4)[Fuc(a1-3)]GlcNAc
# Summary of the method: as §1
# [23] = target: Neu5Gc(a2-6)Gal(b1-4)GlcNAc
# Summary of the method: as §1
# Neu5Gc(a2-6)GalNAc = target: Neu5Gc(a2-6)GalNAc
# Summary of the method: as §1
# [24] = target: Neu5Gc(a2-8)Neu5Ac(a2-3)Gal(b1-4)GlcNAc
# Summary of the method: as §1
# [25] = target: Neu5Gc(a2-8)Neu5Gc(a2-3)Gal(b1-4)GlcNAc
# Summary of the method: as §1
# [26] = target: Neu5Gc(a2-8)Neu5Gc(a2-3)Gal(b1-4)GlcNAc(b1-3)Gal(b1-4)GlcNAc
# Summary of the method: as §1
# [27] = target: Neu5Gc(a2-8)Neu5Gc(a2-6)Gal(b1-4)GlcNAc
# Summary of the method: as §1
# [28] = target: Neu5Gc(b2-6)Gal(b1-4)GlcNAc
# Summary of the method: as §1
binder,measurement,setting,value
B1,glycan array binding signal (z-score),[1],-0.082
same,glycan array binding signal (z-score),Neu5Ac(a2-8)Neu5Ac,-0.965
same,glycan array binding signal (z-score),[2],0.812
same,glycan array binding signal (z-score),[3],1.4
same,glycan array binding signal (z-score),[4],-1.08
same,glycan array binding signal (z-score),[5],-0.35
same,glycan array binding signal (z-score),[6],0.49
same,glycan array binding signal (z-score),[7],-0.697
same,glycan array binding signal (z-score),[8],-0.604
same,glycan array binding signal (z-score),[9],-0.211
same,glycan array binding signal (z-score),[10],0.076
same,glycan array binding signal (z-score),[11],0.422
same,glycan array binding signal (z-score),[12],0.885
same,glycan array binding signal (z-score),[13],0.21
same,glycan array binding signal (z-score),[14],-0.632
same,glycan array binding signal (z-score),Neu5Ac(b2-6)GalNAc,-1.21
same,glycan array binding signal (z-score),[15],-0.744
same,glycan array binding signal (z-score),[16],-0.091
same,glycan array binding signal (z-score),[17],-0.342
same,glycan array binding signal (z-score),[18],-0.46
same,glycan array binding signal (z-score),[19],1.01
same,glycan array binding signal (z-score),Neu5Gc(a2-3)Gal(b1-4)Glc,-0.318
same,glycan array binding signal (z-score),[20],-0.626
same,glycan array binding signal (z-score),[21],1.18
same,glycan array binding signal (z-score),[22],0.179
same,glycan array binding signal (z-score),[23],0.075
same,glycan array binding signal (z-score),Neu5Gc(a2-6)GalNAc,-0.101
same,glycan array binding signal (z-score),[24],-0.906
same,glycan array binding signal (z-score),[25],-0.057
same,glycan array binding signal (z-score),[26],-0.502
same,glycan array binding signal (z-score),[27],0.508
same,glycan array binding signal (z-score),[28],-0.162

# 9 entries from above, with bars between the fields.
binder | measurement | setting | value
B1 | glycan array binding signal (z-score) | [18] | -0.46
same | glycan array binding signal (z-score) | [19] | 1.01
same | glycan array binding signal (z-score) | Neu5Gc(a2-3)Gal(b1-4)Glc | -0.318
same | glycan array binding signal (z-score) | [20] | -0.626
same | glycan array binding signal (z-score) | [21] | 1.18
same | glycan array binding signal (z-score) | [22] | 0.179
same | glycan array binding signal (z-score) | [23] | 0.075
same | glycan array binding signal (z-score) | Neu5Gc(a2-6)GalNAc | -0.101
same | glycan array binding signal (z-score) | [24] | -0.906
